A word on the AC50: it is the midpoint of the concentration-response curve, whichever way the signal moves.

This note sets out measurements from PubChem BioAssay AID2685 (National Center for Advancing Translational Sciences (NCATS), 2010).

A short description of the experiment: qHTS Assay for Lipid Storage Modulators in Drosophila S3 Cells.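 As to cell number change: cells counted by Cell Tracker Red CMTPX staining in the red channel.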 The note with it: BODIPY lipid droplet fluorescence, 18-24 h; for cell number change: measured here: cell count max response, cells fed with added oleic acid. Summed up: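 Drosophila S3 cells loaded with oleic acid (400 uM, as added) and compounds at several concentrations; lipid droplets imaged by 488-nm laser-scanning cytometry, 500–530 nm intensity and object ratio to cell channel. Percent activity normalized to 20 uM Triacsin C.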

[1] abbreviates: measured here: lipid fluorescence (Fed channel) AC50, cells fed with added oleic acid.
The mark [2] stands for this setting: measured here: cell number channel AC50, cells fed with added oleic acid.

The other results are listed elsewhere or left out. Shown are side measurements of this screen, not its main read-out; they come without a call. Most of these compounds were active or inconclusive in the main read-out, so they are no random draw. Words in brackets tell the shape of the fitted curve; partial curves, single points and poor fits give uncertain potencies.

For the compound `Cc1ccc2cc(CCNC(=O)c3cccs3)c(=O)[nH]c2c1`, the cell number change stood at 12%. For the same compound, the AC50 under setting [1] is 1.3 µM [rising, full curve]. For `COc1ccc(N2CCN(c3nc4ccccn4c(=O)c3/C=C(\C#N)S(=O)(=O)c3ccccc3)CC2)cc1`, the cell number change was -7.66%. Also, under setting [1], the AC50 is 2.91 µM [falling, full curve]. Take `COc1ccc(/C=C/C(=O)c2ccc(NC3=NCCCS3)cc2)cc1OC`: the cell number change was determined as 2.84%. For the same compound, the AC50 under setting [1] was 0.0146 µM [falling, full curve, poor fit]. For `Cc1ccc(N2CCN(c3ccc(NC(=O)CCC(=O)O)cc3)CC2)cc1`, the cell number change was found to be 6.12%. Moreover, under setting [1], the AC50 was 11.6 µM [falling, partial curve, poor fit]. With `Cc1onc(-c2ccccc2)c1C(=O)N(C)CCc1ccccn1`, the cell number change amounted to 38.1%. Moreover, under setting [2], the AC50 is 8.2 µM [rising, partial curve, poor fit]. Under setting [1], the concentration at half-maximal activity (AC50) was 0.58 µM [rising, partial curve, poor fit].

As for `Cc1ccc(S(=O)(=O)NC(C)C(=O)NC2CCCCCC2)cc1` (stereo not drawn), the cell number change was -38.3%. Also, under setting [2], the concentration at half-maximal activity (AC50) was 14.6 µM [falling, partial curve]. For the same compound, the AC50 under setting [1] was 8.2 µM [falling, partial curve, poor fit]. Consider `CCCCN(C(=O)c1cc(-c2ccco2)nc2ccccc12)c1c(N)n(CCC)c(=O)[nH]c1=O`, for which the cell number change is -1.2%. Take `CC(C)OC(=O)c1cn(-c2ccccc2)nc1-c1ccc2c(c1)OCCO2`: the cell number change was 56%. Further, the AC50 under setting [2] is 2.59 µM [rising, full curve, poor fit]. With `CC(=O)NC(=S)Nc1cccc([N+](=O)[O-])c1`, the cell number change was -31%.

`COc1ccc2nc(NC(=O)CSC(C)C(=O)Nc3cc(C)on3)sc2c1` (stereo not drawn): the cell number change was -4.53%. Besides, under setting [1], the AC50 was 0.00461 µM [falling, full curve, poor fit]. Turning to `O=C(NCc1cccnc1)c1ccc(CS(=O)(=O)c2ccc(Br)cc2)o1`, the AC50 under setting [2] is 0.116 µM [rising, full curve, poor fit]. In the case of `CCN(Cc1ccccc1)C(=O)c1cc2c(=O)oc3ccc(C)cc3c2s1`, the AC50 under setting [1] is 0.651 µM [rising, full curve, poor fit]. Consider `C/C(=N/NS(=O)(=O)c1ccc(C)cc1C)c1c[nH]c2ccccc12`, for which the cell number change was -29.2%. For the same compound, the AC50 under setting [1] was 29.1 µM [falling, single point]. On to `CC(C)c1ccc(N2CCN(C(=O)c3ccccc3NC(=O)/C=C\C(=O)O)CC2)cc1`, for which the cell number change was -3.94%. In the case of `COC(=O)C1=C(C)N(C)C(=O)NC1c1ccsc1` (stereo not drawn), the cell number change is -33%. Moreover, the half-maximal activity concentration (AC50) under setting [2] is 8.91 µM [falling, partial curve]. Moreover, the AC50 under setting [1] was 8.91 µM [falling, partial curve]. Turning to `COC(=O)c1ccccc1OCCCCN1CC(C)OC(C)C1` (stereo not drawn), the cell number change was -46.8%. The concentration at half-maximal activity (AC50) under setting [2] is 0.00461 µM [falling, full curve, poor fit]. Regarding `COC(=O)c1ccc(CNC(=O)CSc2nc3ccccc3[nH]2)cc1`, the cell number change is -11.8%. Regarding `CC/C(=N\Nc1ccnc2cc(Cl)ccc12)c1ccc(O)cc1`, the cell number change is -18.4%. The half-maximal activity concentration (AC50) under setting [1] is 5.62 µM [rising, single point]. Consider `COc1ccc(-c2cn3cccnc3n2)cc1NC(=O)CC(C)C`, for which the cell number change was -7.28%. Also, under setting [1], the AC50 was 6.51 µM [falling, single point]. Take `CCCC1C(c2ccc(OC)cc2)C(C#N)(C#N)C2(C#N)CC1(N)NC2=O` (stereo not drawn): the cell number change was found to be 34.6%. Moreover, the AC50 under setting [2] is 0.82 µM [rising, full curve, poor fit].

`CS(=O)(=O)N(Cc1ccc(Cl)cc1)c1ccc(C(=O)N/N=C/c2cc3ccccc3nc2Cl)cc1`: the cell number change was found to be 30.7%. For the same compound, under setting [2], the AC50 is 2.59 µM [rising, full curve].

`Cc1ccc(OCCNS(=O)(=O)c2ccc(N3CCCC3=O)cc2)cc1C`: the cell number change was -30.5%. Moreover, the concentration at half-maximal activity (AC50) under setting [2] is 29.1 µM [falling, single point]. Take `Cc1ccc(CN2CCCNC2=O)cc1`: the cell number change was -6.11%. In addition, the AC50 under setting [1] was 1.16 µM [rising, full curve, poor fit]. Consider `Cc1cc(C(=O)Cn2nnc(-c3ccc(Cl)cc3)n2)c(C)n1CC1CCCO1` (stereo not drawn), for which the cell number change is -1.62%. Moreover, under setting [1], the AC50 is 0.0517 µM [rising, partial curve, poor fit]. As for `CCN(CC)S(=O)(=O)c1cccc(C(=O)NC(C)C(c2cccs2)N2CCCC2)c1` (stereo not drawn), the AC50 under setting [1] was 0.103 µM [rising, full curve, poor fit].

Regarding `Cc1ccc(C)c(S(=O)(=O)Nc2ccc(C(=O)N3CCCCC3)cc2)c1`, the cell number change came out at 8.21%. Under setting [1], the AC50 is 0.411 µM [rising, partial curve].

With `NC(=O)C(c1ccccc1)c1ccc(C(=O)c2ccccc2)cc1` (stereo not drawn), the cell number change was 14.4%. The concentration at half-maximal activity (AC50) under setting [1] was 18.4 µM [falling, single point]. Take `CCOc1ccccc1N1CCN(C(=O)CC(C)(C)C)CC1`: the cell number change was 12.8%. The AC50 under setting [2] was 0.103 µM [rising, full curve, poor fit]. For the compound `CN1C(=O)/C(=C/C=C2\SCCN2C)SC1=S`, the cell number change is -17.4%. The AC50 under setting [1] was 25.9 µM [falling, single point]. Consider `COc1ccccc1Cn1c(=O)c2ccccc2n2c(SCc3csc(C)n3)nnc12`, for which the cell number change is -23.8%. For the same compound, the AC50 under setting [1] is 1.64 µM [rising, partial curve]. Consider `COCC1CCCCN1C(=O)c1ccc2nc(Cc3ccc(OC)c(OC)c3)oc2c1` (stereo not drawn), for which the cell number change was -35.1%. The AC50 under setting [2] was 0.00517 µM [falling, full curve, poor fit].

`COc1ccc(NC(=O)c2oc3ccccc3c2NC(=O)C(C)(C)C)cc1`: the half-maximal activity concentration (AC50) under setting [1] is 0.651 µM [rising, single point]. On to `N#Cc1nc(COc2cccc(Cl)c2)oc1N1CCCC1`, for which the cell number change was -0.408%. Under setting [2], the AC50 was 0.82 µM [falling, full curve, poor fit]. On to `COc1ccc(N(C)S(=O)(=O)c2ccc3c(c2)NC(=O)CC(=O)N3)c(OC)c1`, for which the cell number change came to 0.295%. Under setting [1], the AC50 is 29.1 µM [falling, single point]. Turning to `CCOc1ccc(N(Cc2cc3cc(OC)ccc3[nH]c2=O)C(=O)C2CCCO2)cc1` (stereo not drawn), the cell number change was -32.4%. Moreover, under setting [2], the AC50 was 9.2 µM [falling, partial curve]. As to `CCCCCCP(=O)(O)c1ccccc1`, the cell number change is 4.46%. Moreover, the AC50 under setting [1] was 0.651 µM [falling, full curve]. On to `CCOC(=O)C1=C(C)OC(N)=C(C#N)C1c1ccc(C)o1` (stereo not drawn), for which the half-maximal activity concentration (AC50) under setting [1] is 0.82 µM [falling, single point]. `CCN1C(=O)/C(=C\c2cccc(OC(=O)c3ccco3)c2)SC1=S`: the cell number change was -28.2%. Moreover, the AC50 under setting [1] was 1.16 µM [rising, partial curve, poor fit]. For the compound `CCO[C@@H]1OC(C(=O)NCc2nc3ccccc3[nH]2)=C[C@H](c2csc3ccccc23)[C@H]1CCCO`, the cell number change is -42.7%. Moreover, the AC50 under setting [2] is 10.3 µM [falling, partial curve]. Under setting [1], the AC50 was 29.1 µM [falling, single point].

`CC1(C)Cc2c(C#N)c(NCC3CCCO3)nc(-c3ccco3)c2CO1` (stereo not drawn): the cell number change is -15.3%. The AC50 under setting [1] was 0.164 µM [rising, full curve, poor fit]. For `COc1ccc(/C=C/c2cc(C(=O)O)c3ccccc3n2)cc1`, the cell number change was -18.3%. Further, the AC50 under setting [2] was 0.00461 µM [falling, full curve, poor fit]. In the case of `O=C(NCc1cccc(Cl)c1)c1ccc2c(c1)SC1=NS(=O)(=O)CCN12`, the cell number change stood at 157%. The AC50 under setting [2] was 6.51 µM [falling, single point]. For the same compound, under setting [1], the AC50 is 0.58 µM [rising, single point]. For `COc1ccc(C(=O)OCC(=O)c2ccc(CNC(C)=O)s2)cc1`, the cell number change turned out to be 11%. Under setting [1], the AC50 was 4.11 µM [falling, single point]. As to `O=C(NN1CCOCC1)c1ccc(Cl)cc1`, under setting [1], the AC50 is 0.92 µM [rising, full curve]. With `COc1ccc(-c2nc(N3CCN(C)CC3)sc2-c2ccc(OC)cc2)cc1`, the cell number change came out at 1.3%. For the same compound, the half-maximal activity concentration (AC50) under setting [1] was 0.58 µM [rising, single point].

For `COC(=O)Cc1c(C)c2ccc(OCC(=O)N3CCC(C)CC3)c(C)c2oc1=O`, the cell number change is -42.4%. The AC50 under setting [2] is 20.6 µM [falling, single point]. Under setting [1], the AC50 was 14.6 µM [falling, partial curve, poor fit]. In the case of `CCOC(=O)N1CCc2c(sc(NC(=O)C3COc4ccccc4O3)c2C(N)=O)C1` (stereo not drawn), the cell number change was 75.4%. In addition, under setting [1], the AC50 is 0.411 µM [falling, partial curve, poor fit]. With `CCOc1ncccc1C(=O)NCCc1ccc(S(N)(=O)=O)cc1`, the cell number change came out at 12.7%. Further, under setting [1], the half-maximal activity concentration (AC50) was 0.651 µM [rising, partial curve, poor fit]. Consider `Cc1cc(C)cc(NC(=O)C(=O)NCCCN2CCOCC2)c1`, for which the cell number change is -17.9%. Also, the AC50 under setting [2] is 0.651 µM [rising, single point]. Further, under setting [1], the AC50 was 29.1 µM [falling, single point]. Regarding `CCN(CC)S(=O)(=O)c1ccc(Nc2nc3ccccc3n3nnnc23)cc1`, the cell number change was -18.1%. For the same compound, the concentration at half-maximal activity (AC50) under setting [1] was 1.16 µM [rising, full curve, poor fit]. Regarding `[O-][n+]1cccc2ncc3cscc3c21`, the cell number change is -30.8%. Also, the AC50 under setting [2] is 32.6 µM [falling, single point]. Regarding `CCNc1nc(NC(C)(C)C)nc(N(CC)n2cnnc2)n1`, the cell number change was found to be 3.74%. For the same compound, the AC50 under setting [1] is 32.6 µM [rising, single point]. Turning to `N#Cc1c2nc3ccccc3nc2n2cc(NC(=O)c3ccc(F)cc3)ccc12`, the AC50 under setting [2] was 0.82 µM [rising, full curve].

On to `CCc1cc(C(=O)OC)c(NC(=O)CC2NCCNC2=O)s1` (stereo not drawn), for which the cell number change was -0.473%. Moreover, the half-maximal activity concentration (AC50) under setting [1] is 29.1 µM [rising, single point]. As for `O=C(Cn1cnc2c(nnn2Cc2ccccc2)c1=O)NCC1CCCO1` (stereo not drawn), the cell number change was -17.1%. Also, the half-maximal activity concentration (AC50) under setting [1] was 0.13 µM [falling, full curve, poor fit]. As to `C=CC(C)(O)CCCC(C)CCCC(C)CCCC(C)C` (stereo not drawn), the cell number change was -20.4%. Also, the concentration at half-maximal activity (AC50) under setting [1] was 0.116 µM [falling, single point]. With `CCOC(=O)Cc1csc(NC(=O)CSc2nnc3ccccn23)n1`, the cell number change was 79.9%. On to `O=C(COC(=O)/C=C/c1ccc(C(F)(F)F)cc1)NCC1CCCCC1`, for which the cell number change is -2.43%. The AC50 under setting [1] was 0.103 µM [rising, full curve, poor fit]. With `CCN(Cc1ccccc1)C1CCN(Cc2ccccc2)CC1`, the cell number change is -15.2%. In addition, the concentration at half-maximal activity (AC50) under setting [2] is 0.00461 µM [falling, full curve, poor fit].
